# From patent US20230117034A1, “PYRAZOLOTRIAZINES” (Bayer Aktiengesellschaft, priority 2019, published 2023)
# Chains of the proteins cited; added tags and fusions are not shown.
# UniProt Q9NYV4, whole entry: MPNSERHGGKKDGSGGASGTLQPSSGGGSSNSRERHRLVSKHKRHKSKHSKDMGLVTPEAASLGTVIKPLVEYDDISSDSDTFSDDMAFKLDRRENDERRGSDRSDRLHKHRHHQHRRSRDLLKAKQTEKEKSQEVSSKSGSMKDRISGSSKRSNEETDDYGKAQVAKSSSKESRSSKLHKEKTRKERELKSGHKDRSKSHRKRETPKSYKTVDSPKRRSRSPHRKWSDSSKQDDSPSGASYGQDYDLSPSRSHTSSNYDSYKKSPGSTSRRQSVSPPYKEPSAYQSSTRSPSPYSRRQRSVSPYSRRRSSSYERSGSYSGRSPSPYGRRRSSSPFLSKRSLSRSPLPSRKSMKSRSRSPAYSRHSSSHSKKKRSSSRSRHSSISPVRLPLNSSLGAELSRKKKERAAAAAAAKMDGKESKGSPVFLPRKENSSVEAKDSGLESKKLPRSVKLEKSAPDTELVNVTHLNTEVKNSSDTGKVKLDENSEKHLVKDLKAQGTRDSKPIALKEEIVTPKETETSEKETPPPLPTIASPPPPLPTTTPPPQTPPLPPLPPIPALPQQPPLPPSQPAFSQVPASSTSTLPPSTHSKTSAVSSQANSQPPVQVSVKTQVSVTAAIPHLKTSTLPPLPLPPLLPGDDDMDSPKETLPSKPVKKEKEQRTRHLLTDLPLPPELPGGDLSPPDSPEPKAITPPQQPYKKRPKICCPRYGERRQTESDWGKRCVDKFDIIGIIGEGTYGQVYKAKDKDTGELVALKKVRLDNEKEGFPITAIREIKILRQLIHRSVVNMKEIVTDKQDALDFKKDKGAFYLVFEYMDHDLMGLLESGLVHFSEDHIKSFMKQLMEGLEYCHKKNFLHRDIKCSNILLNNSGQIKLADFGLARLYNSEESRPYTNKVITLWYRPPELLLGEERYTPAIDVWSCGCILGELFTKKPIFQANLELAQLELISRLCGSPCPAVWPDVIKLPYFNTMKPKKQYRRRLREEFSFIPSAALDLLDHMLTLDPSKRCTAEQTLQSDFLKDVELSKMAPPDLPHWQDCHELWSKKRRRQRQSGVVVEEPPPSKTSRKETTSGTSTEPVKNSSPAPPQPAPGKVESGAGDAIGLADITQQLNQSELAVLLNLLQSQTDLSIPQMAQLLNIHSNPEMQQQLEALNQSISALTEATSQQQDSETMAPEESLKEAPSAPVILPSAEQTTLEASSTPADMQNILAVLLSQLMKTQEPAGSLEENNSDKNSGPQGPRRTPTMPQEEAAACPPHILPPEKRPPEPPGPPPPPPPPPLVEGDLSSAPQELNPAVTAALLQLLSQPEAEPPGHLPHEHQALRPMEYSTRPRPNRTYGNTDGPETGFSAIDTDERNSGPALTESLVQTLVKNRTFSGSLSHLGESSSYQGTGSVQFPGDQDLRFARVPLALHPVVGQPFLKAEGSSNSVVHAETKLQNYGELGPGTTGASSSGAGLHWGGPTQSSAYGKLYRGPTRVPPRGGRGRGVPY
# For at least one compound, name, drawing or mass did not settle the structure.
# Target: T1, CDK12 (nuclear staining in CAL-120 cells) (Homo sapiens, UniProt Q9NYV4)
# T1 construct: endogenous in cells; host or cells: CAL-120 human breast cancer cells (DSMZ ACC 459)
# Experiment: CDK12 nuclear protein level: immunofluorescence/high content analysis (CAL-120)
# Assay type: cell-based
# Conditions: ratio of IC50 CDK12 high ATP kinase assay to DC50 CDK12 degradation (IF, CAL-120)
# Procedure: In the context of the present invention, the term “DC50 CDK12” refers to the DC50 values obtained according to the assay described in this section (7) herein below, i.e. the DC50 values for the degradation of CDK12.
# Plates are then incubated for 24 h at 37° C. in an humidified incubator and fixed with 4% PFA for 10 min. […] Nuclear and cytoplasmic intensity as well as the nuclear/cytoplasmic intensity ratio is determined by automated image analysis using custom generated scripts (MetaXpress). Data is then transferred to Genedata Screener software, normalized to DMSO and control and DC50 values (degrading concentration to achieve 50% reduction of nuclear CDK12 staining intensity relative to controls) are reported.
row,Compound,(IC50 CDK12 high ATP) to (Degradation DC50 CDK12) ratio
1,"Fc1ccc(-c2nnc(CNc3nc(N4CCOCC4)nc4c(Br)cnn34)[nH]2)c(F)c1 [Example 41, 8-bromo-N-{[5-(2,4-difluorophenyl)-4H-1,2,4-triazol-3-yl]methyl}-2-(morpholin-4-yl)pyrazolo[1,5-a][1,3,5]triazin-4-amine]",>1406
2,"FC(F)(F)Oc1ccccc1-c1nnc(CNc2nc(N3CCOCC3)nc3c(Br)cnn23)[nH]1 [Example 74, 8-bromo-2-(morpholin-4-yl)-N-({5-[2-(trifluoromethoxy)phenyl]-4H-1,2,4-triazol-3-yl}methyl)pyrazolo[1,5-a][1,3,5]triazin-4-amine]",>348
3,"Fc1ccc(-c2nnc(CNc3nc(N4CCOCC4)nc4c(Br)cnn34)[nH]2)cc1F [Example 99, 8-bromo-N-{[5-(3,4-difluorophenyl)-4H-1,2,4-triazol-3-yl]methyl}-2-(morpholin-4-yl)pyrazolo[1,5-a][1,3,5]triazin-4-amine]",229
4,"COC(C)(C)CNc1nc(NCc2nc3ccccc3[nH]2)n2ncc(Br)c2n1 [Example 236, N4-(1H-benzimidazol-2-ylmethyl)-8-bromo-N2-(2-methoxy-2-methyl-propyl)pyrazolo[1,5-a][1,3,5]triazine-2,4-diamine]",>2491
5,"c1ccc2[nH]c(CNc3nc(N4CCOCC4)nc4c(C5CCCC5)cnn34)nc2c1 [Example 244, N-[(1H-benzimidazol-2-yl)methyl]-8-cyclopentyl-2-(morpholin-4-yl)pyrazolo[1,5-a][1,3,5]triazin-4-amine]",>198
